{
  "sequences": {"note": "Chains of the proteins cited; added tags and fusions are not shown.", "UniProt P18054, whole entry, looked up": "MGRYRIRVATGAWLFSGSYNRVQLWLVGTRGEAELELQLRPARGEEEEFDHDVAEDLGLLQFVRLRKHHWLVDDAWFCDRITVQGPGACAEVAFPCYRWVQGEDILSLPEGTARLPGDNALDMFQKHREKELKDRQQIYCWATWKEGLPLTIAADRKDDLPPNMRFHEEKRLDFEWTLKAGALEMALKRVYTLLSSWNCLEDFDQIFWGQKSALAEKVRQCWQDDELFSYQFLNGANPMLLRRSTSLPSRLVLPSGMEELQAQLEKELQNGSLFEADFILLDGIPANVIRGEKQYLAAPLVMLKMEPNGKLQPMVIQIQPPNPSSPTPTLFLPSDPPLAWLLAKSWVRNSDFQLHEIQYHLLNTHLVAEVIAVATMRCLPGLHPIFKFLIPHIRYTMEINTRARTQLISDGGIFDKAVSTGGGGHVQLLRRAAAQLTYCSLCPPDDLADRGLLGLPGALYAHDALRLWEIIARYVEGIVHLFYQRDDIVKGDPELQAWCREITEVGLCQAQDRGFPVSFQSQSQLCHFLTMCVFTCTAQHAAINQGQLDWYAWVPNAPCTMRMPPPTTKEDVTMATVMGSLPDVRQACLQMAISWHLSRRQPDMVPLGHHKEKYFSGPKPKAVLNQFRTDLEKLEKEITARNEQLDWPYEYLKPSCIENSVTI"},
  "source": "PubChem BioAssay AID1671190",
  "about": "(National Center for Advancing Translational Sciences (NCATS), 2021)",
  "note": "Values joined by “and” are separate entries in the source; they are usually repeats but may differ in a detail not shown here. Identical values can stand only once. Screen size: about 580,000 compounds; about 6,100 (1.1%) were called active. Inconclusive results, whose numbers are uncertain, are shown with a selection of clear calls. Calls come from the whole dose curve; as a rule, active = well fitted inhibition curve with a large enough effect; inconclusive = small, poorly fitted or top-dose-only effect, or another doubt; inactive = no such curve, though single readings can be large or run the other way. Where the call is inconclusive, the potency comes from a doubtful curve fit. % is set by controls: 0 for no effect and ±100 for the full control effect; potency is the fitted concentration of half-maximal effect.",
  "data": [
    {"biological_target": "Polyunsaturated fatty acid lipoxygenase ALOX12 (Homo sapiens) (UniProt P18054)", "test": "Primary qHTS assay for inhibitors of human arachidonate 12S-lipoxygenase (ALOX12): Round 2", "conditions": "purified 12hLO, xylenol orange hydroperoxide absorbance; activity change, negative = inhibition: at 108 µM (top of the series) unless noted", "procedure,_shortened": "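Hydroperoxide product was detected by ferrous iron/xylenol orange as the 573 to 405 nm absorbance ratio. Arachidonic acid at 40 uM (final) was turned over for 30 min at room temperature by 150 nM human 12hLO, pH 7.0 Hepes buffer, after 15 min compound preincubation.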", "values": [
      {"smiles": "O=C(/C=C/c1cccnc1)NCCc1cccc2ccccc12", "Potency": "inactive"},
      {"smiles": "CCc1ccc(NC(=O)CSc2nc3c(c(=O)[nH]2)CN(Cc2ccc(C)cc2)CC3)cc1", "Potency": "inconclusive: 56.2 µM [inhibitor, partial curve, poor fit]"},
      {"smiles": "COc1ccccc1/C=C/C=N/n1c(-c2ccccc2)n[nH]c1=S", "Potency": "inconclusive: 126 µM [inhibitor, partial curve, poor fit]"},
      {"smiles": "NC(CO)c1csc(NC(=O)Nc2ccccc2Cc2ccccc2)n1", "note": "(configuration not stated)", "Potency": "inconclusive: 44.7 µM [inhibitor, partial curve, poor fit]"},
      {"smiles": "CCOc1ccccc1C(=O)NCC(c1cccs1)S(=O)(=O)c1ccc(F)c(C)c1", "note": "(configuration not stated)", "activity change, negative = inhibition": "inconclusive: -30.1% [inhibitor]"},
      {"smiles": "CCCC#Cc1ccc2c(c1)O[C@H](CN(C)S(=O)(=O)c1cccc(OC)c1)[C@H](C)CN([C@H](C)CO)S2(=O)=O", "Potency": "inconclusive: 10 µM [inhibitor, full curve, poor fit]"},
      {"smiles": "Cc1cccc(C(=O)NC(=S)Nc2ccc(N3CCOCC3)cc2)c1", "Potency": "active: 44.7 µM"},
      {"smiles": "O=C(Oc1ccc([N+](=O)[O-])cc1)C1CC(=O)N(c2ccc3c(c2)OCCO3)C1", "note": "(configuration not stated)", "Potency": "inconclusive: 79.4 µM [inhibitor, partial curve, poor fit]"},
      {"smiles": "CCOc1ccc(CN2CCC3(CC2)Cc2ccccc2CNC3=O)cc1", "activity change, negative = inhibition": "inactive: -0.0178% [at 6.33 µM]"},
      {"smiles": "O=S(=O)(NCCc1coc(-c2ccc(F)cc2)n1)c1ccccc1", "Potency": "inconclusive: 89.1 µM [inhibitor, partial curve, poor fit]"},
      {"smiles": "CONC(=O)COc1ccc(C)cc1C", "Potency": "inactive"},
      {"smiles": "CC1CCCN(CC2CCCN2)C1", "note": "(configuration not stated)", "Potency": "inconclusive: 0.355 µM [inhibitor, full curve, poor fit]"},
      {"smiles": "O=C1Nc2ccc(I)cc2/C1=C/c1cc(Br)c(O)c(Br)c1", "Potency": "inactive and inconclusive: 35.5 µM [inhibitor, single point]"},
      {"smiles": "O=C(NC1CCCCC1)N1Cc2[nH]cnc2C[C@H]1c1nc(-c2ccc(Cl)cc2)no1", "Potency": "inconclusive: 56.2 µM [inhibitor, full curve, poor fit]"},
      {"smiles": "CCOc1ccc(CCNC(=O)C2CCC(=O)N2C2CCCCC2)cc1OCC", "note": "(configuration not stated)", "Potency": "inactive"},
      {"smiles": "COc1cc(-c2nc(C(=O)NC3CCCCC3)cc3c2[nH]c2ccccc23)cc(OC)c1OC", "Potency": "inactive"},
      {"smiles": "Cc1ccc(S(=O)(=O)N2CCN(CC3CC4C=CC3C4)CC2)cc1", "note": "(configuration not stated)", "Potency": "inconclusive: 1.41 µM [inhibitor, full curve, poor fit]"},
      {"smiles": "CCc1ccc(OCC(=O)Nc2ccc3c(c2)OCCO3)cc1", "Potency": "inactive"},
      {"smiles": "CCOCCOC1CCN(C(=O)c2ccco2)CC1", "Potency": "inactive"},
      {"smiles": "CC1CC(C)CN(CC(=O)NC(c2ccccc2)c2ccccc2)C1", "note": "(configuration not stated)", "Potency": "inconclusive: 1.58 µM [inhibitor, full curve]"},
      {"smiles": "CCCCn1cc(S(=O)(=O)c2ccccc2)c(=O)c2cc(CC)ccc21", "Potency": "inconclusive: 14.1 µM [inhibitor, full curve]"},
      {"smiles": "O=C(O)c1cc(Br)cs1", "Potency": "inconclusive: 70.8 µM [inhibitor, partial curve, poor fit]"},
      {"smiles": "CCCc1ccc(-c2csc(NC(=O)c3cnc4c(c3)c(=O)n(C)c(=O)n4C)n2)cc1", "Potency": "inactive"},
      {"smiles": "O=C(COc1ccc(F)cc1)Nc1ccccc1C(=O)OCc1cc(=O)n2ccsc2n1", "Potency": "inconclusive: 158 µM [inhibitor, partial curve, poor fit]"},
      {"smiles": "CSc1cccc(NC(=O)Cn2c(-c3cccc(Cl)c3)nc(C)c(CCO)c2=O)c1", "Potency": "inactive"},
      {"smiles": "COc1ccc(C(=O)C(CN2CCOCC2)c2ccccc2)cc1F", "note": "(configuration not stated)", "Potency": "inconclusive: 56.2 µM [inhibitor, single point]"},
      {"smiles": "CC1CCN(c2nc(SCCO)c(C#N)c3c2CCCC3)CC1", "Potency": "inconclusive: 28.2 µM [inhibitor, single point]"},
      {"smiles": "COC(=O)c1c(NC(=O)CCC(=O)O)sc2c1CCCCC2", "Potency": "inactive"},
      {"smiles": "COc1cccc(CNC(=S)Nc2ccc3c(c2)c(=O)n(C)n3Cc2ccccc2)c1", "Potency": "inconclusive: 39.8 µM [inhibitor, partial curve, poor fit]"},
      {"smiles": "Cc1ccc(-c2nc3ccccc3o2)cc1NC(=O)C1CC1", "Potency": "inactive"},
      {"smiles": "Cc1c(Br)cnn1CCc1nnc(Nc2ccn(Cc3ccccc3Cl)n2)s1", "Potency": "inconclusive: 31.6 µM [inhibitor, partial curve, poor fit]"},
      {"smiles": "O=C(NNc1ccccc1[N+](=O)[O-])Nc1ccc(F)cc1", "Potency": "inconclusive: 50.1 µM [inhibitor, partial curve, poor fit]"},
      {"smiles": "Cc1cc(I)c(-c2c(I)cc(C)c(N)c2C)c(C)c1N", "Potency": "inactive"},
      {"smiles": "CCCCNC(=S)NCCc1c(C)[nH]c2ccc(C)cc12", "Potency": "inconclusive: 112 µM [inhibitor, partial curve, poor fit]"},
      {"smiles": "Cc1nc(-c2ccccc2)sc1CCNC(=O)C(=O)Nc1ccc(F)c(Cl)c1", "Potency": "inactive"},
      {"smiles": "O=S(=O)(c1ccc2nc(N3CCN(c4ccc(F)cc4)CC3)ccc2c1)N1CCCCC1", "Potency": "inconclusive: 35.5 µM [inhibitor, partial curve, poor fit]"},
      {"smiles": "N/C(=N\\N=C/c1ccc(Br)cc1)N/N=C\\c1ccc(Br)cc1", "Potency": "inconclusive: 50.1 µM [inhibitor, partial curve, poor fit]"},
      {"smiles": "NC(=O)c1ccccc1NC(=O)CN1c2ccccc2S(=O)(=O)c2ccccc21", "Potency": "inconclusive: 141 µM [inhibitor, partial curve, poor fit]"},
      {"smiles": "Cc1ncc([N+](=O)[O-])n1CC(=O)Nc1cccc(C(F)(F)F)c1", "Potency": "inconclusive: 25.1 µM [inhibitor, partial curve, poor fit]"},
      {"smiles": "Cc1cccnc1C(NC(=O)C1CCN(CCOc2ccc(F)cc2)CC1)c1ccc(F)cc1", "note": "(configuration not stated)", "Potency": "inconclusive: 2.82 µM [inhibitor, full curve, poor fit]"},
      {"smiles": "COc1ccc(CN2C(=O)C(CC(C)C)Nc3ncnc(N4CCN(c5ccccc5)CC4)c32)cc1", "note": "(configuration not stated)", "Potency": "inconclusive: 70.8 µM [inhibitor, partial curve, poor fit]"},
      {"smiles": "CCc1ccc(Nc2nnc(Cc3ccc(OC)c(OC)c3)c(=O)[nH]2)cc1", "Potency": "inactive"}
    ]}
  ]
}
